Entries after “also recorded” stand apart in the source; their conditions may differ.
Test system: endogenous steroid hormones (E2, progesterone, testosterone, corticosteroid) in sera
Test: Serum endogenous steroid hormone levels after treatment
Format: in vivo, mouse
Settings: 3.7 mg G-1 (so in the source), FIG. 3

CC(=O)c1ccc2c(c1)C1C=CCC1C(c1cc3c(cc1Br)OCO3)N2 (centres unmarked) [G-1]
serum level of corticosteroid: only slightly lowered
serum levels of other steroid hormones (E2, progesterone, testosterone): did not change; also recorded: did not affect any of the other steroid hormones tested

Source: patent US20110124614A1, “Methods And Compositions For The Treatment of Autoimmune Disorders” (priority 2008, published 2011)
